Some results were stated once for a whole list of compounds, not compound by compound. At least one structure is not confirmed: it was looked up by name or label, or the drawing left a doubt.
Tests used:
Type in all cases: in vivo
[1] = tested on: Phytophthora infestans; settings: tomato (cultivar: Patio), foliage application 500 ppm, preventive, 1 day high humidity at 23° C. plus 4 days greenhouse
[2] = tested on: Stagonospora nodorum; experiment: Test of Preventive Effect on Wheat Glume Blotch; settings: wheat (cultivar: Shirogane), foliage application 500 ppm, 4 days darkness and high humidity at 18° C. plus 4 days lighting
[3] = tested on: Plasmopara viticola; experiment: Test of Curative Effect on Grape Downy Mildew; settings: grape (seedling of Berry-A), foliage application 500 ppm 1 day after inoculation, 5 days greenhouse at 23° C. plus 1 day high humidity
[4] = tested on: Erysiphe graminis f. sp. tritici; experiment: Test of Preventive Effect on Wheat Powdery Mildew; settings: wheat (cultivar: Shirogane), foliage application 500 ppm, 7 days at 23° C. after inoculation
[5] = tested on: Fusarium culmorum; experiment: Test of Preventive Effect on Wheat Fusarium Blight; settings: wheat (cultivar: Shirogane), foliage application 500 ppm, 4 days darkness and high humidity at 23° C. plus 3 days lighting
[6] = tested on: Sclerotinia sclerotiorum; experiment: Test of Preventive Effect on Cucumber Stem Rot; settings: cucumber (cultivar: Sagamihanjiro), foliage application 500 ppm, 4 days at 18° C. and high humidity
[7] = tested on: Botrytis cinerea; experiment: Test of Preventive Effect on Cucumber Gray Mold; settings: cucumber (cultivar: Sagamihanjiro), foliage application 500 ppm, 4 days at 12° C. and high humidity

Compound | area of lesion spots on the treated plant relative to that on an untreated plant [1] | area of lesion spots on the treated plant relative to that on an untreated plant [2] | area of lesion spots on the treated plant relative to that on an untreated plant [5] | also measured
C#CCOc1c(F)cc(C(=O)NCC2(CO)CCC2)cc1F [compound 11] | ≤ 30% | ≤ 30% | – | –
C#CCOc1ccc(C(=O)NC(C)C(C)(C)O)cc1OC (centres unmarked) [compound 2] | – | – | – | area of lesion spots on the treated plant relative to that on an untreated plant [3]: ≤ 30%
C#CCOc1c(F)cc(C(=O)NCC2(OC(C)=O)CCCCC2)cc1F [compound 19] | ≤ 30% | ≤ 30% | – | –
C#CCOc1ccc(C(=O)NCC2(CO)CCCC2)cc1OC [compound 10] | ≤ 30% | – | – | –
C#CCOc1c(F)cc(C(=O)NC(C)C(C)(C)O)cc1F (centres unmarked) [compound 1] | – | – | ≤ 30% | area of lesion spots on the treated plant relative to that on an untreated plant [3]: ≤ 30%; area of lesion spots on the treated plant relative to that on an untreated plant [4]: ≤ 30%
C#CCOc1ccc(C(=O)NCC2CC=CCC2)cc1OC (centres unmarked) [compound 15] | ≤ 30% | – | – | –
C#CCOc1c(F)cc(C(=O)NCC(C)(C)O)cc1F [compound 3] | – | ≤ 30% | ≤ 30% | area of lesion spots on the treated plant relative to that on an untreated plant [4]: ≤ 30%
C#CCOc1c(F)cc(C(=O)NCC(C)(C)N)cc1F [compound 6] | ≤ 30% | – | – | –
C#CCOc1c(F)cc(C(=O)NC2CCCCC2NC(=O)OC(C)(C)C)cc1F (centres unmarked) [compound 24] | – | – | ≤ 30% | area of lesion spots on the treated plant relative to that on an untreated plant [3]: ≤ 30%
C#CCOc1c(F)cc(C(=O)NC2CCCCC2OC)cc1F (centres unmarked) [compound 21] | ≤ 30% | ≤ 30% | ≤ 30% | area of lesion spots on the treated plant relative to that on an untreated plant [4]: ≤ 30%; area of lesion spots on the treated plant relative to that on an untreated plant [6]: ≤ 30%
C#CCOc1c(F)cc(C(=O)NC2CCCCC2=C)cc1F (centres unmarked) [compound 37] | – | ≤ 30% | – | area of lesion spots on the treated plant relative to that on an untreated plant [6]: ≤ 30%; area of lesion spots on the treated plant relative to that on an untreated plant [7]: ≤ 30%
C#CCOc1ccc(C(=O)NCC2(CO)CCCCC2)cc1OC [compound 8] | ≤ 30% | – | – | –
C#CCOc1ccc(C(=O)NC2CCCCC2=O)cc1OC (centres unmarked) [compound 34] | ≤ 30% | ≤ 30% | ≤ 30% | –
C#CCOc1c(F)cc(C(=O)N[C@@H]2CCCC[C@H]2C(F)(F)F)cc1F [compound 31] | ≤ 30% | ≤ 30% | – | –
C#CCOc1c(F)cc(C(=O)NC2CCCCC2=O)cc1F (centres unmarked) [compound 36] | – | ≤ 30% | ≤ 30% | area of lesion spots on the treated plant relative to that on an untreated plant [3]: ≤ 30%; area of lesion spots on the treated plant relative to that on an untreated plant [4]: ≤ 30%; area of lesion spots on the treated plant relative to that on an untreated plant [6]: ≤ 30%; area of lesion spots on the treated plant relative to that on an untreated plant [7]: ≤ 30%
C#CCOc1c(F)cc(C(=O)NCC2=CCCCC2)cc1F [compound 18] | ≤ 30% | ≤ 30% | – | area of lesion spots on the treated plant relative to that on an untreated plant [6]: ≤ 30%; area of lesion spots on the treated plant relative to that on an untreated plant [7]: ≤ 30%
C#CCOc1c(F)cc(C(=O)NCC2(CO)CCCCC2)cc1F [compound 7] | – | ≤ 30% | – | –
C#CCOc1c(F)cc(C(=O)NCC2(CO)CCCC2)cc1F [compound 9] | ≤ 30% | ≤ 30% | – | –
C#CCOc1c(F)cc(C(=O)NC2CCCCC2OC(C)=O)cc1F (centres unmarked) [compound 22] | – | ≤ 30% | – | –

Reference: patent publication US20100105647A1 (priority 2007, published 2010)
